PubChem BioAssay AID743454 – Peter MacCallum Cancer Centre, 2014

Screen: 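Genes whose loss kills vorinostat-resistant colon cancer cells under vorinostat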 (primary screen)
Cell system: human HCT116-VR colon cancer cells, selected for vorinostat resistance
Knock-down reagent: siRNA pool against human genes, 40 nM siRNA pool
Time to read-out: vorinostat for 24 h, read-out about 72 h after transfection
Treatment: vorinostat at 2.5 µM final
Measured: 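Two measures, CellTiter-Fluor viability and luminescent caspase 3/7 activity, each as fold change against same-plate mock wells, mean of duplicates, then screen-wide robust z-score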
Reading the numbers: viability robust z-score: higher = more viable cells than screen typical; caspase robust z-score: higher = more caspase 3/7 activity than screen typical
Call rule: 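a knock-down is a hit when classed RV1 or RV2 for lowered viability, or CA1 or CA2 for caspase activation; those lethal without drug were dropped; hits were retested singly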
In all, the deposit lists about 18,000 reagents; this is a part drawn at random. In the full data, 450 (2.5%) were called active. 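Single biological run; no consistent viability z cut-off exists, so the class columns, not z-scores, define the calls.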 A number with no mark means an inactive call.

| gene knocked down | viability hit class | caspase hit class | viability robust z-score | caspase robust z-score |
| --- | --- | --- | --- | --- |
| ANKRD42 (ankyrin repeat domain 42) | no change | no change | 0.28 | 0.71 |
| ASXL1 (ASXL transcriptional regulator 1) | no change | no change | 0.29 | -1.02 |
| F8A3 (coagulation factor VIII associated 3) | no change | no change | -1.08 | 3.1 |
| ZNF767P (zinc finger family member 767, pseudogene) | no change | no change | -1.84 | 0.96 |
| AUTS2 (activator of transcription and developmental regulator AUTS2) | no change | no change | 0.23 | -0.66 |
| CKS2 (CDC28 protein kinase regulatory subunit 2) | no change | no change | 0.93 | -0.34 |
| CCDC43 (coiled-coil domain containing 43) | no change | no change | -0.18 | 0.72 |
| ZNF141 (zinc finger protein 141) | no change | no change | -0.2 | -0.4 |
| RMP64 (ribonuclease MRP subunit p64) | no change | no change | -1.08 | 1.36 |
| APLF (aprataxin and PNKP like factor) | no change | no change | 0.19 | 1.64 |
| SPEM2 (SPEM family member 2) | no change | no change | 2.09 | -0.34 |
| GFAP (glial fibrillary acidic protein) | no change | no change | 0.3 | -1.25 |
| SIRAL2 (SIR2 antiphage like 2) | no change | no change | -1.04 | -0.89 |
| ADARB1 (adenosine deaminase RNA specific B1) | no change | no change | 0.46 | -0.42 |
| OR5AK2 (olfactory receptor family 5 subfamily AK member 2) | no change | no change | 0.82 | 2 |
| LONRF3 (LON peptidase N-terminal domain and ring finger 3) | no change | no change | -1 | -1.08 |
| AP1G1 (adaptor related protein complex 1 subunit gamma 1) | no change | no change | 1.35 | -0.48 |
| CDKAL1 (CDKAL1 threonylcarbamoyladenosine tRNA methylthiotransferase) | no change | no change | 0.44 | -0.32 |
| B4GALT7 (beta-1,4-galactosyltransferase 7) | no change | no change | -1.27 | -0.3 |
| C5orf22 (chromosome 5 open reading frame 22) | no change | no change | -0.49 | 1.36 |
| LOC652591 (retired record) | no change | no change | -0.62 | 0.46 |
| PGAP2 (post-GPI attachment to proteins 2) | no change | no change | -0.3 | -1 |
| OR52I2 (olfactory receptor family 52 subfamily I member 2) | no change | no change | 0.34 | -0.52 |
| PFDN6 (prefoldin subunit 6) | no change | no change | -0.93 | 3.36 |
| CCDC33 (coiled-coil domain containing 33) | no change | no change | -0.18 | -0.46 |
| KCNJ4 (potassium inwardly rectifying channel subfamily J member 4) | no change | no change | -1.1 | 1.43 |
| SLC17A1 | no change | no change | 0.84 | -0.44 |
| CCNB1IP1 (cyclin B1 interacting protein 1) | no change | no change | 1.04 | -0.28 |
| TMEM87B (transmembrane protein 87B) | no change | no change | 0.36 | 0.12 |
| DIAPH2 (diaphanous related formin 2) | no change | no change | -0.32 | 0.48 |
| CHUK | no change | no change | 0.53 | 1.07 |
| NOMO2 (NODAL modulator 2) | no change | no change | 0.06 | -0.52 |
| WDR6 (WD repeat domain 6) | no change | no change | -0.19 | 0.6 |
| SRGAP1 (SLIT-ROBO Rho GTPase activating protein 1) | no change | no change | 0.12 | 0.11 |
| TERF2 (telomeric repeat binding factor 2) | no change | no change | -0.01 | 0.96 |
| CCDC174 (coiled-coil domain containing 174) | no change | no change | -0.3 | 0.8 |
| ANKRA2 (ankyrin repeat family A member 2) | no change | no change | 1.77 | -0.55 |
| EFNA2 (ephrin A2) | no change | no change | -0.46 | -0.31 |
| NMRK1 (nicotinamide riboside kinase 1) | no change | no change | 0.46 | 0.08 |

Part of the list above, reduced to “caspase robust z-score”.
NOMO2 (NODAL modulator 2)	-0.52
WDR6 (WD repeat domain 6)	0.6
SRGAP1 (SLIT-ROBO Rho GTPase activating protein 1)	0.11
TERF2 (telomeric repeat binding factor 2)	0.96
CCDC174 (coiled-coil domain containing 174)	0.8
